Measurements: patent US20150111825A1
Results are given in words; binding and its absence hold for the method and conditions named. Some entries that bind do so weakly or less than the wild type.

T1: GPRC6a (OstR), mouse, on Leydig cells of testis sections (mouse) (UniProt Q8K4Z6)
T1 sequence (looked up): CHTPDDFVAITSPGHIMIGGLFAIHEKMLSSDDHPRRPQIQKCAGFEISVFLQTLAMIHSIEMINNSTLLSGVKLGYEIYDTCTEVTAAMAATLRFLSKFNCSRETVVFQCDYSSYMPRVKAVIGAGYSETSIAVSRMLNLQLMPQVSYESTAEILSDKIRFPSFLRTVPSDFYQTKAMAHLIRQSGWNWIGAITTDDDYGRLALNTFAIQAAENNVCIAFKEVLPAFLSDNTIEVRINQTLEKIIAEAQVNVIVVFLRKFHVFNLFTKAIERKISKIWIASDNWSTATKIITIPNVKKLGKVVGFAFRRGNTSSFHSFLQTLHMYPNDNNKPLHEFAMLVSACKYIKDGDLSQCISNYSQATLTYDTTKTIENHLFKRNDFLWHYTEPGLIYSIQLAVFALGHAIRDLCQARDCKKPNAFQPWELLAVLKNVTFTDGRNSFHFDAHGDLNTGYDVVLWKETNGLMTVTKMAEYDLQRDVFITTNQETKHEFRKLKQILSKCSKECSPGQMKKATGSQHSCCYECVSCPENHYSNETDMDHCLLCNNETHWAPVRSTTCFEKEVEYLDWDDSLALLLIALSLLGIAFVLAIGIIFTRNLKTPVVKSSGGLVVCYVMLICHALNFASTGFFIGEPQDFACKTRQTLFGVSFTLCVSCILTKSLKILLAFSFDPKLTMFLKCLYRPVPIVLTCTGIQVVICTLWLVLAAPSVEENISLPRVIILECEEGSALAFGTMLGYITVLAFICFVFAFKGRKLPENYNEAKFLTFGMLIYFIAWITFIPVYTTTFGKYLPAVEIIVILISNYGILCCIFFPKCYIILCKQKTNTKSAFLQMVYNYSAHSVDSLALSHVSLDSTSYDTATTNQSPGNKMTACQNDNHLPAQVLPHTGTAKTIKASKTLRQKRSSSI


What was measured:
[1] = target: T1, GPRC6a (OstR), mouse, on Leydig cells of testis sections (mouse); test: heading of the legend of FIG. 15; panel I shows testis sections stained with 10 nM b-osteocalcin
[2] = target: T1, GPRC6a (OstR), mouse, on Leydig cells of testis sections (mouse); test: biotinylated osteocalcin on frozen mouse testis sections, avidin-biotin/DAB detection; no binding detected on GPRC6a-deficient testes
[3] = target: T1, GPRC6a (OstR), mouse, on Leydig cells of testis sections (mouse); test: competition with biotinylated osteocalcin on mouse testis sections

| binding [1] | binding [2] | binding [3] | Binder |
| --- | --- | --- | --- |
| binds | binds | – | YLGASVPSPDPLEPTREQCELNPACDELSDQYGLKTAYKRIYGITI (ligand, UniProt P86546 50-95, looked up, biotinylated (site of the biotin not stated)) [biotinylated osteocalcin] |
| – | – | binds | YLGASVPSPDPLEPTREQCELNPACDELSDQYGLKTAYKRIYGITI (ligand, UniProt P86546 50-95, looked up) [uncarboxylated osteocalcin (recombinant, bacterially produced)] |
